PubChem BioAssay AID1508588 | Peter MacCallum Cancer Centre – 2020
Aim: 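Genome-wide search for knock-downs that heighten vemurafenib action in melanoma cells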 (primary screen). System: human WM266.4 melanoma cells (BRAF V600 mutant). Knock-down reagent: siRNA pool against human genes, 40 nM. Timing: 96 h from transfection to read-out. Treatment: vemurafenib 300 nM (about IC25), added 48 h after transfection, for 48 h; comparison arm got DMSO vehicle only. Detection: 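Ratios to non-targeting siRNA for cell gain, counted as DAPI nuclei after minus before drug and averaged over two replicates, and for absorbance-read medium lactate per cell; both binned into fold-change classes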. Scale: cell gain with vemurafenib: higher = more cell gain than with non-targeting siRNA; lactate per cell with vemurafenib: higher = more lactate made per cell. Rule for the call: 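Enhancement is called by pairing each knock-down's vehicle-arm and drug-arm fold-change classes for viability or glycolysis; which class combinations qualify is not given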. Meaning of the calls: active = enhances vemurafenib effect; inactive = no enhancement seen.
Here is an unselected part of about 18,000 reagents tested. 790 of all reagents (4.4%) were called active. 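Calls rest on a combination of fold-change classes in drug and vehicle arms, not all shown here.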 Entries without a mark were called inactive.

SHARPIN (GeneID 81858) gave cell gain with vemurafenib 0.92; lactate per cell with vemurafenib 0.5.
Against PNMA1 (GeneID 9240), the values are cell gain with vemurafenib 0.74; lactate per cell with vemurafenib 1.07.
With knock-down of TDRKH (GeneID 11022), the record shows cell gain with vemurafenib 0.78; lactate per cell with vemurafenib 1.25.
Silencing of HAUS6 (GeneID 54801) resulted in: cell gain with vemurafenib 0.5; lactate per cell with vemurafenib 0.8.
Knock-down of SEMA6C (GeneID 10500) resulted in: cell gain with vemurafenib 0.57; lactate per cell with vemurafenib 0.87.
Against NIPAL3 (GeneID 57185), the entry reads cell gain with vemurafenib 0.9; lactate per cell with vemurafenib 0.94.
Against OR4D6 (GeneID 219983) the deposit lists cell gain with vemurafenib 0.4; lactate per cell with vemurafenib 0.62.
For POLR1H (GeneID 30834), the values are cell gain with vemurafenib 0.21; lactate per cell with vemurafenib 0.9.
With knock-down of SLC25A6 (GeneID 293), the screen gave cell gain with vemurafenib 0.98; lactate per cell with vemurafenib 0.76.
Silencing of GUCY1A2 (GeneID 2977) came out at: cell gain with vemurafenib 0.24; lactate per cell with vemurafenib 1.93.
Knock-down of ADAMTS19 (GeneID 171019) came out at: cell gain with vemurafenib 0.56; lactate per cell with vemurafenib 0.86.
DIO3 (GeneID 1735) gave cell gain with vemurafenib 0.72; lactate per cell with vemurafenib 0.7.
Silencing of MMP26 (GeneID 56547) gave: cell gain with vemurafenib 0.6; lactate per cell with vemurafenib 0.86.
ROBO2 (GeneID 6092) showed cell gain with vemurafenib 0.74; lactate per cell with vemurafenib 0.64.
With knock-down of DHX9 (GeneID 1660) the results were cell gain with vemurafenib 0.42; lactate per cell with vemurafenib 1.56.
With knock-down of CFH (GeneID 3075), the screen gave cell gain with vemurafenib 1.29; lactate per cell with vemurafenib 0.92.
Depletion of KRTAP12-1 (GeneID 353332) came out at: cell gain with vemurafenib 1.08; lactate per cell with vemurafenib 0.4.
Silencing of ZNF511 (GeneID 118472) resulted in: cell gain with vemurafenib 0.52 (active); lactate per cell with vemurafenib 0.49.
Against GPR88 (GeneID 54112), the values are cell gain with vemurafenib 0.54; lactate per cell with vemurafenib 0.67.
For NPTN (GeneID 27020), the values are cell gain with vemurafenib 0.98; lactate per cell with vemurafenib 0.56.
Silencing of PKNOX1 (GeneID 5316) came out at: cell gain with vemurafenib 1.08; lactate per cell with vemurafenib 0.92.
For IFNG (GeneID 3458) the deposit lists cell gain with vemurafenib 0.66; lactate per cell with vemurafenib 0.49.
NMU (GeneID 10874) showed cell gain with vemurafenib 0.57; lactate per cell with vemurafenib 0.77.
Silencing of ARFGAP2 (GeneID 84364) resulted in: cell gain with vemurafenib 0.55; lactate per cell with vemurafenib 0.58.
Knock-down of SIKE1 (GeneID 80143) gave: cell gain with vemurafenib 0.4; lactate per cell with vemurafenib 1.19.
Silencing of RAB39B (GeneID 116442) resulted in: cell gain with vemurafenib 0.36; lactate per cell with vemurafenib 1.08.
MEAK7 (GeneID 57707) scored cell gain with vemurafenib 0.6; lactate per cell with vemurafenib 1.09.

In a second layout: entries from further up
target gene	cell gain with vemurafenib	lactate per cell with vemurafenib
SIKE1 (GeneID 80143)	0.4	1.19
RAB39B (GeneID 116442)	0.36	1.08
MEAK7 (GeneID 57707)	0.6	1.09
